Laboratory results: patent US20250368686A1, “PEPTIDE DRUGS FOR S[…] D[…] BLOCKING HOMO- AND HETERO-DIMERIZATION OF OPIOID RECEPTORS” (OKINAWA INSTITUTE OF SCIENCE AND TECHNOLOGY SCHOOL …, priority 2022, published 2025)
No constants are given. Whether binding was seen depends on the method and setting. Some entries that bind do so weakly or less than the wild type.

Amino acid sequences for entries named in this document (tags omitted). Residues count along the entry.
UniProt P33535: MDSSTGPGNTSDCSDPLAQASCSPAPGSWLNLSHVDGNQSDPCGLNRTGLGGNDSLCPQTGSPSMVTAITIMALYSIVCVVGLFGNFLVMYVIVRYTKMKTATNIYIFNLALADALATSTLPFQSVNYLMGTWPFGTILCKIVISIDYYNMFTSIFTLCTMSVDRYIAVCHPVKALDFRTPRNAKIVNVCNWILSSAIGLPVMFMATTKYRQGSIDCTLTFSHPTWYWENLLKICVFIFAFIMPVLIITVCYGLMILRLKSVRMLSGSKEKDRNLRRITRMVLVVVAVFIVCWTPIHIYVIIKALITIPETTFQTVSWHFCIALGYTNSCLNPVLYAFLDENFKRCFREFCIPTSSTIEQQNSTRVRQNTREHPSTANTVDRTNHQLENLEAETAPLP
UniProt P33533, residues 207-238: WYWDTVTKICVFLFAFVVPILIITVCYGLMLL

Target: µ-type opioid receptor (MOR), rat, wild type, fluorescently tagged, expressed in the PM of CHO-K1 cells (Example 1) (rat) (UniProt P33535)
Assay: colocalisation index, SNAPf-tagged construct co-expressed with WT-MOR

binding: binds
Substance: DOR's TM5 conjugated with the SNAPf tag (from UniProt P33533 207-238)
